No constants are given. Whether binding was seen depends on the method and setting. Binding seen in cells or lysates may run through a third protein.

Sequences of proteins named here, by UniProt entry; tags and fusion partners are left off. Residues count along the entry.
UniProt P02769, residues 25-607: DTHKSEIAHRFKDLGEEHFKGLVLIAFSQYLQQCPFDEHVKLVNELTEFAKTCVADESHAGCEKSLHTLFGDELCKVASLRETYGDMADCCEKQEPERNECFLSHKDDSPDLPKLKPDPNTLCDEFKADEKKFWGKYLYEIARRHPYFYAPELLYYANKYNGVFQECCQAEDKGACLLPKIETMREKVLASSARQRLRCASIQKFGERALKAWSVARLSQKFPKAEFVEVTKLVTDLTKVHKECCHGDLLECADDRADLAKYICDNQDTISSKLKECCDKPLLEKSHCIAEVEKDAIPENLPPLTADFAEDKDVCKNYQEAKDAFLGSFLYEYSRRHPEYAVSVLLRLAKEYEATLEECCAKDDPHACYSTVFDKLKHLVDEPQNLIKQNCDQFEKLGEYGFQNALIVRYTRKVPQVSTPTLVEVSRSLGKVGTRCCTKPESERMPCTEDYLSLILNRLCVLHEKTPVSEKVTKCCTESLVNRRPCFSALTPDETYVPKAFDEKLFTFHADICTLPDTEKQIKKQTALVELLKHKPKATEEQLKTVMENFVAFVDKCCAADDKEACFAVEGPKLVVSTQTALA

The assay deals with bovine serum albumin (BSA) (protease free) coupled to cyanogen bromide-activated sepharose 4B (bovine) (UniProt P02769). The experiment in a line: pull-down; collagen sepharose affinity chromatography: collagen type I or BSA (100 ug/mL) coupled to CNBr-activated sepharose 4B; washed human platelets (4 x 10^8 cells) pre-incubated with vehicle (0.1% DMSO), control IgG, inhibitory anti-HSP47 (10 ug/mL) or SMIH (20 uM) for 2 min at 37 C, lysed with 2% NP40 buffer; beads rotated 1 h at 4 C; bound proteins by immunoblot; only the target purified.

B1: Heat shock protein 47 (HSP47), platelet-derived (protein, UniProt P50454 19-418)
chain: AEVKKPAAAAAPGTAEKLSPKAATLAERSAGLAFSLYQAMAKDQAVENILVSPVVVASSLGLVSLGGKATTASQAKAVLSAEQLRDEEVHAGLGELLRSLSNSTARNVTWKLGSRLYGPSSVSFADDFVRSSKQHYNCEHSKINFRDKRSALQSINEWAAQTTDGKLPEVTKDVERTDGALLVNAMFFKPHWDEKFHHKMVDNRGFMVTRSYTVGVMMMHRTGLYNYYDDEKEKLQIVEMPLAHKLSSLIILMPHHVEPLERLEKLLTKEQLKIWMGKMQKKAVAISLPKGVVEVTHDLQKHLAGLGLTEAIDKNKADLSRMSGKKDLYLASVFHATAFELDTDGNPFDQDIYGREELRSPKLFYADHPFIFLVRDTQSGSLLFIGRLVRPKGDKMRDEL
With B1, the binding result is listed as “no binding”.

(Values after PMC6434988.)
